Source: PubChem BioAssay AID504808 (Drosophila RNAi Screening Center, 2011)

Assay: 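Fly genes required to hold E2F transcription in check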 (primary screen)
Cells: Drosophila S2 cells
Reagents: long dsRNA against Drosophila genes
Read-out: 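Firefly luciferase driven by E2F sites, normalised to Renilla luciferase on the same minimal promoter, measured by plate reader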
Reading the numbers: E2F firefly: higher = more E2F reporter activity; Renilla normaliser: higher = more normaliser reporter signal
Hit rule: 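a knock-down counted as active when the firefly/Renilla E2F signal rose above 50%, a threshold chosen arbitrarily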
The screen tested about 21,000 reagents; this is a random part of those with a known target gene and a result. Of all reagents, 18 (0.084%) got an active call. 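Raw counts without plate normalisation, one of two replicates; the ratio scores behind the calls were not deposited.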 The numbers tell different reagents against one gene apart. Reagent sequences are not shown. The record does not give: the amount of reagent, the time to read-out.

| target gene | reagent no. | E2F firefly, rep 1 | Renilla normaliser, rep 1 | call |
| --- | --- | --- | --- | --- |
| Cka (Connector of kinase to AP-1) | 1 | 1.46e5 | 4971 | inactive |
| senju | 1 | 1.44e5 | 5153 | inactive |
| hrg (hiiragi) | 1 | 1.32e5 | 5129 | inactive |
| CG4849 | 1 | 1178 | 1016 | inactive |
| Proc-R (Proctolin receptor) | 1 | 1.11e5 | 6040 | inactive |
| CG13014 | 1 | 1.59e5 | 6553 | inactive |
| Pld3 (Phospholipase D family member 3) | 1 | 77882 | 3406 | inactive |
| CG6435 | 1 | 1.52e5 | 4655 | inactive |
| Tep5Psi (Thioester-containing protein 5 pseudogene) | 1 | 1.01e5 | 4164 | inactive |
| Tep5Psi (Thioester-containing protein 5 pseudogene) | 2 | 92643 | 3777 | inactive |
| pps (protein partner of snf) | 1 | 60190 | 6611 | inactive |
| Src42A (Src oncogene at 42A) | 1 | 1.14e5 | 4713 | inactive |
| loaf (lost and found) | 1 | 1.25e5 | 5628 | inactive |
| CG11035 | 1 | 67773 | 3910 | inactive |
| Osi4 (Osiris 4) | 1 | 1.27e5 | 6486 | inactive |
| CG2811 | 1 | 94190 | 3883 | inactive |
| FMRFaR (FMRFamide Receptor) | 1 | 1.03e5 | 4233 | inactive |
| RpL17 (Ribosomal protein L17) | 1 | 5963 | 896 | inactive |
| nompC (no mechanoreceptor potential C) | 1 | 1.50e5 | 5149 | inactive |
| bard | 1 | 1.26e5 | 7116 | inactive |
| CG6428 | 1 | 1.10e5 | 5763 | inactive |
| CG13876 | 1 | 94283 | 4519 | inactive |
| CG10561 | 1 | 84101 | 3374 | inactive |
| CG13300 | 1 | 96126 | 3822 | inactive |
| Naa40 (N(alpha)-acetyltransferase 40) | 1 | 1.27e5 | 6244 | inactive |
| CG5746 | 1 | 67713 | 3269 | inactive |
| mRNA-cap (mRNA-capping-enzyme) | 1 | 1.01e5 | 5450 | inactive |
| Tapdelta (Translocon-associated protein delta) | 1 | 157 | 32 | inactive |
| CG10909 | 1 | 1.21e5 | 5508 | inactive |
| inaE (inactivation no afterpotential E) | 1 | 1.58e5 | 6097 | inactive |
| inaE (inactivation no afterpotential E) | 2 | 8484 | 812 | inactive |
| inaE (inactivation no afterpotential E) | 3 | 1.35e5 | 6223 | inactive |
| inaE (inactivation no afterpotential E) | 4 | 1.41e5 | 5272 | inactive |
| Su(dx) (Suppressor of deltex) | 1 | 85354 | 3377 | inactive |

4 of these entries, reformatted:
{"target gene":"CG11035","reagent no.":1,"E2F firefly, rep 1":67773,"Renilla normaliser, rep 1":3910,"call":"inactive"}
{"target gene":"Osi4 (Osiris 4)","reagent no.":1,"E2F firefly, rep 1":1.27e5,"Renilla normaliser, rep 1":6486,"call":"inactive"}
{"target gene":"CG2811","reagent no.":1,"E2F firefly, rep 1":94190,"Renilla normaliser, rep 1":3883,"call":"inactive"}
{"target gene":"FMRFaR (FMRFamide Receptor)","reagent no.":1,"E2F firefly, rep 1":1.03e5,"Renilla normaliser, rep 1":4233,"call":"inactive"}
